Consider twelve compounds from the supplement of paper PMC10849652.

By UniProt entry, the sequences of proteins in these tests, tags left out. Where a name states a change or a piece, a line headed by the entry shows the natural chain unless it says otherwise.
UniProt Q6DD87: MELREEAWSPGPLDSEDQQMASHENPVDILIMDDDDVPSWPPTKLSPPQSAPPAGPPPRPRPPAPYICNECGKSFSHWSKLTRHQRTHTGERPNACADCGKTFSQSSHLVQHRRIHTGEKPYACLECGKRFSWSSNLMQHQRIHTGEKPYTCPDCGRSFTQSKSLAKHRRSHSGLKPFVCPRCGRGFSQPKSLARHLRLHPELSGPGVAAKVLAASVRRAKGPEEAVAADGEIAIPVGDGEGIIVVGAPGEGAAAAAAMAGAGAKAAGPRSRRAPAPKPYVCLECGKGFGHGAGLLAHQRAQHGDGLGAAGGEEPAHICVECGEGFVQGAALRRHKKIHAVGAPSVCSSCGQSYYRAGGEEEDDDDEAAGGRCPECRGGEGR

SMILES strings stand for the structures. The list shows a part of the results.

The target of the test is ZNF787 (UniProt Q6DD87). Kind of test: log2 fold change, soluble protein after heating vs DMSO (PISA); higher = thermal stabilisation; K562 cells, 10 uM, 30 min; active = over 0.2 and 3.5 SD of the protein, either way, in both replicates (recomputed). In outline:
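For each measurement, 10 μM compound was applied for 30 min to K562 cells at 2×10^6 cells/mL. Aliquots were heated for 3 min across 48°C-58°C, pooled, and extracted in PBS with 0.5% NP-40 at 4°C; the supernatant after 21,000xg for 90 min was soluble protein. This was quantified by TMTpro 16plex LC-MS/MS with channel sums equalised, and thermal stability was reported relative to control samples from duplicates, on a log2 fold-change scale.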
In the case of `Fc1ccc(Cl)cc1-c1nc(Nc2ccncc2)c2nccnc2n1`, the log2 fold change was inactive: -0.233.
As to `CN1CCc2c(c3ccccc3n2Cc2ccc(C(=O)NO)cc2)C1` [Tubastatin A], the log2 fold change is inactive: 0.059.
To `CC1=C(C(=O)Nc2cc3cn[nH]c3cc2F)C(c2ccc(C(F)(F)F)cc2)CC(=O)N1` (configuration not stated) belongs inactive: 0.062; to `Cc1nc(Nc2n[nH]c3c2CN(C(=O)N[C@H](CN(C)C)c2ccccc2)C3(C)C)c2sccc2n1`, inactive: -0.056.
On to `CNC(=O)c1ccccc1Nc1nc(Nc2ccc(N3CCOCC3)cc2OC)ncc1Cl`, for which the log2 fold change was inactive: 0.001.
Turning to `CCCCN(Cc1ccc(C(=O)NO)cc1)C(=O)Nc1ccccc1` [Nexturastat A], the log2 fold change is inactive: 0.11.
Turning to `Cc1nc(Nc2ncc(C(=O)Nc3c(C)cccc3Cl)s2)cc(N2CCN(CCO)CC2)n1` [dasatinib], the log2 fold change was inactive: 0.108.
Regarding `Cc1ccc2c(=O)c3ccccc3n(CCCN)c2c1C`, the log2 fold change is inactive: -0.024.
Regarding `CN1CCN(CCOc2cc(OC3CCOCC3)c3c(Nc4c(Cl)ccc5c4OCO5)ncnc3c2)CC1` [saracatinib], the log2 fold change is inactive: -0.168.
For `C[C@@H]1COCCN1c1cc(C2(S(C)(=O)=O)CC2)nc(-c2cccc3[nH]ccc23)n1`, the log2 fold change was inactive: -0.144.
Turning to `Cc1cn(-c2cc(NC(=O)c3ccc(C)c(Nc4nccc(-c5cccnc5)n4)c3)cc(C(F)(F)F)c2)cn1` [nilotinib], the log2 fold change was inactive: 0.018.
For `CNc1nc(-c2ccc3c(N)n[nH]c3c2)cc(N2C[C@@H](C(=O)NC3CCCCC3)CC[C@H]2C)n1`, the log2 fold change was inactive: 0.054.
